Values quoted from earlier work in PMC9545004, “Transglutaminase 2 affinity and enzyme‐substrate intermediate stability as determining factors for T‐cell responses to gluten peptides in celiac disease” (European Journal of Immunology, 2022).

Conditions: cited from earlier work; for concentration in duodenal aspirates: five fasting volunteers; for concentration in duodenal fluid: five subjects

| Structure (SMILES) | concentration in duodenal aspirates [µM] | concentration in duodenal fluid [µM] |
| --- | --- | --- |
| NCCCCNCCCN [spermidine] | 3.2 | 13.1 |
| NCCCNCCCCNCCCN [spermine] | 4.0 | 6.3 |
